Data taken from the supplement of paper PMC10849652.
Some of the results follow.

By UniProt entry, the sequences of proteins in these tests, tags left out. Where a name states a change or a piece, a line headed by the entry shows the natural chain unless it says otherwise.
UniProt O95568: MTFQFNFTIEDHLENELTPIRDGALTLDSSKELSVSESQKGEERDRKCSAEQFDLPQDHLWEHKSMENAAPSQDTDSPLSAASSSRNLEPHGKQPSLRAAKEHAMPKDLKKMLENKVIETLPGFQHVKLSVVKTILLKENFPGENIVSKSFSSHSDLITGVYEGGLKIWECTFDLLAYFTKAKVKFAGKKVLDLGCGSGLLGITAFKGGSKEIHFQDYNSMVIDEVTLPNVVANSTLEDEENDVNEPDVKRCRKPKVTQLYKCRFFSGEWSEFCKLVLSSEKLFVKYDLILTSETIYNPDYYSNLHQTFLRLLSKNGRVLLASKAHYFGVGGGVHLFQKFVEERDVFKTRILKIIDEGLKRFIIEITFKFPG
UniProt Q9Y2X0: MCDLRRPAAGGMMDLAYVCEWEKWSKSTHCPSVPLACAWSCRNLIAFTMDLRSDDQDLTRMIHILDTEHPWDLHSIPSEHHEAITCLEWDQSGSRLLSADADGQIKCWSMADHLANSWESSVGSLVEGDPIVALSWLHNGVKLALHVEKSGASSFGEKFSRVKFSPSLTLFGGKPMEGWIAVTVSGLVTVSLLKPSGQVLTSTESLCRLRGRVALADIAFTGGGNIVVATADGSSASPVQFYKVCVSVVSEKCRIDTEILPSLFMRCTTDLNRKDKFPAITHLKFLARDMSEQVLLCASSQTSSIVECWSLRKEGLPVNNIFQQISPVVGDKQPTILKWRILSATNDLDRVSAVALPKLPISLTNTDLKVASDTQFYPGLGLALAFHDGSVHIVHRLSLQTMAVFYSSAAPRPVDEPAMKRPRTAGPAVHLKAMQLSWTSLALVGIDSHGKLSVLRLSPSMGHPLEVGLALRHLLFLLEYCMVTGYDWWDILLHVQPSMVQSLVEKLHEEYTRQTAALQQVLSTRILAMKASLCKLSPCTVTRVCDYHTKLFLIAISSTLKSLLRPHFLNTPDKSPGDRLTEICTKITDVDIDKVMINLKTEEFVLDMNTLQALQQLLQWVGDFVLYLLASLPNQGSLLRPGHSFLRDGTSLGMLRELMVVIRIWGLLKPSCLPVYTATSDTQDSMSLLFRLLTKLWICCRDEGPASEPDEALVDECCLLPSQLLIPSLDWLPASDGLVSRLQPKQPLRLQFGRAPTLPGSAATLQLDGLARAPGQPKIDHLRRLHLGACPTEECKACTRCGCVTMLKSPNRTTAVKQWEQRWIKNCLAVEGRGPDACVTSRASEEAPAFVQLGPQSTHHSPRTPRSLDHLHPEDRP
UniProt P50579: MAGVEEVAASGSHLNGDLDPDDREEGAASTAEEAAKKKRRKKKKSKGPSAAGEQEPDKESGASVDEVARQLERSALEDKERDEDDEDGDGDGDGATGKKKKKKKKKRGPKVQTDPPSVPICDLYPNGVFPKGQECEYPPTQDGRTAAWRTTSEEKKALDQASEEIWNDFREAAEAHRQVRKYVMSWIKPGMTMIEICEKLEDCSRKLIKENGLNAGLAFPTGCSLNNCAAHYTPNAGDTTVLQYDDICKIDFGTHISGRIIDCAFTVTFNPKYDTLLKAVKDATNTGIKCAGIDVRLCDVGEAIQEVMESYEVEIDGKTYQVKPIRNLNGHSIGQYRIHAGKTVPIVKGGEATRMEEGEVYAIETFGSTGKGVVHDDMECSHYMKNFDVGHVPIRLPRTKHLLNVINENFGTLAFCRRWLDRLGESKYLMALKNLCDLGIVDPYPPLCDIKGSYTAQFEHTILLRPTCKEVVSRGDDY
UniProt Q6P9B6: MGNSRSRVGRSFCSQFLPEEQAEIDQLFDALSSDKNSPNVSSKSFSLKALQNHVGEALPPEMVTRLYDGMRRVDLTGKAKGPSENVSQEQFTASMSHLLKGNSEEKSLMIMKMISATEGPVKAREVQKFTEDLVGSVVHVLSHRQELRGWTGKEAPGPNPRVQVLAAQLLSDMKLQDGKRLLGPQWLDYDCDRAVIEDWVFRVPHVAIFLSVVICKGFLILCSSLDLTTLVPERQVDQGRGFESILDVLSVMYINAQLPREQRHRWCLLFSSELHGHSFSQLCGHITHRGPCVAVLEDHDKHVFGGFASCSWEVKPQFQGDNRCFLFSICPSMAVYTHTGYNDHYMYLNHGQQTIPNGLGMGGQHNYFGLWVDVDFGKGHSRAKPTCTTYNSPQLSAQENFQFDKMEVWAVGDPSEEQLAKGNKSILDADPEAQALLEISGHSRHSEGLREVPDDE
UniProt Q99735: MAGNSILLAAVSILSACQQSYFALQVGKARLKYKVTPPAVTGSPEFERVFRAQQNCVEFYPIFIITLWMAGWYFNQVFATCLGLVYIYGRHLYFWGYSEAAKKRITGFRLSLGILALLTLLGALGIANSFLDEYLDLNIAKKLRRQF
UniProt P40925: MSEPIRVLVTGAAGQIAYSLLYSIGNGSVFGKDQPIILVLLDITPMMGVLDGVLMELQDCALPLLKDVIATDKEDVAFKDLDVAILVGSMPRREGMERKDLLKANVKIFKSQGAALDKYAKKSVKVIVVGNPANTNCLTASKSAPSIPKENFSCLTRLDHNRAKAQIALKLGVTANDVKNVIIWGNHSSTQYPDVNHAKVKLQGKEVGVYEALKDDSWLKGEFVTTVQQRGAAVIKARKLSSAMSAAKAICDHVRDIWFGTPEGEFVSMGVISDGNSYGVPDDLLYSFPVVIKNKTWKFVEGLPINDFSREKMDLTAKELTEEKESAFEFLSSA
UniProt Q96AQ8: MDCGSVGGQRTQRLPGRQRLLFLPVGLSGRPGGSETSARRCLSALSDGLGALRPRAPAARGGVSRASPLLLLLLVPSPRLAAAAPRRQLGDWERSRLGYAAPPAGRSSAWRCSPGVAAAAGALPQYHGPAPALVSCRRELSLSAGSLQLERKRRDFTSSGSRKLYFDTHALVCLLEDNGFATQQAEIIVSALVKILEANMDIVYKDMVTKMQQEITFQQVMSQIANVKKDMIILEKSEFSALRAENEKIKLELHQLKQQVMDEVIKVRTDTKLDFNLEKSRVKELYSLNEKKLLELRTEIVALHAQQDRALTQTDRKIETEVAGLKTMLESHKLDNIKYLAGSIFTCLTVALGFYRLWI
UniProt Q14676: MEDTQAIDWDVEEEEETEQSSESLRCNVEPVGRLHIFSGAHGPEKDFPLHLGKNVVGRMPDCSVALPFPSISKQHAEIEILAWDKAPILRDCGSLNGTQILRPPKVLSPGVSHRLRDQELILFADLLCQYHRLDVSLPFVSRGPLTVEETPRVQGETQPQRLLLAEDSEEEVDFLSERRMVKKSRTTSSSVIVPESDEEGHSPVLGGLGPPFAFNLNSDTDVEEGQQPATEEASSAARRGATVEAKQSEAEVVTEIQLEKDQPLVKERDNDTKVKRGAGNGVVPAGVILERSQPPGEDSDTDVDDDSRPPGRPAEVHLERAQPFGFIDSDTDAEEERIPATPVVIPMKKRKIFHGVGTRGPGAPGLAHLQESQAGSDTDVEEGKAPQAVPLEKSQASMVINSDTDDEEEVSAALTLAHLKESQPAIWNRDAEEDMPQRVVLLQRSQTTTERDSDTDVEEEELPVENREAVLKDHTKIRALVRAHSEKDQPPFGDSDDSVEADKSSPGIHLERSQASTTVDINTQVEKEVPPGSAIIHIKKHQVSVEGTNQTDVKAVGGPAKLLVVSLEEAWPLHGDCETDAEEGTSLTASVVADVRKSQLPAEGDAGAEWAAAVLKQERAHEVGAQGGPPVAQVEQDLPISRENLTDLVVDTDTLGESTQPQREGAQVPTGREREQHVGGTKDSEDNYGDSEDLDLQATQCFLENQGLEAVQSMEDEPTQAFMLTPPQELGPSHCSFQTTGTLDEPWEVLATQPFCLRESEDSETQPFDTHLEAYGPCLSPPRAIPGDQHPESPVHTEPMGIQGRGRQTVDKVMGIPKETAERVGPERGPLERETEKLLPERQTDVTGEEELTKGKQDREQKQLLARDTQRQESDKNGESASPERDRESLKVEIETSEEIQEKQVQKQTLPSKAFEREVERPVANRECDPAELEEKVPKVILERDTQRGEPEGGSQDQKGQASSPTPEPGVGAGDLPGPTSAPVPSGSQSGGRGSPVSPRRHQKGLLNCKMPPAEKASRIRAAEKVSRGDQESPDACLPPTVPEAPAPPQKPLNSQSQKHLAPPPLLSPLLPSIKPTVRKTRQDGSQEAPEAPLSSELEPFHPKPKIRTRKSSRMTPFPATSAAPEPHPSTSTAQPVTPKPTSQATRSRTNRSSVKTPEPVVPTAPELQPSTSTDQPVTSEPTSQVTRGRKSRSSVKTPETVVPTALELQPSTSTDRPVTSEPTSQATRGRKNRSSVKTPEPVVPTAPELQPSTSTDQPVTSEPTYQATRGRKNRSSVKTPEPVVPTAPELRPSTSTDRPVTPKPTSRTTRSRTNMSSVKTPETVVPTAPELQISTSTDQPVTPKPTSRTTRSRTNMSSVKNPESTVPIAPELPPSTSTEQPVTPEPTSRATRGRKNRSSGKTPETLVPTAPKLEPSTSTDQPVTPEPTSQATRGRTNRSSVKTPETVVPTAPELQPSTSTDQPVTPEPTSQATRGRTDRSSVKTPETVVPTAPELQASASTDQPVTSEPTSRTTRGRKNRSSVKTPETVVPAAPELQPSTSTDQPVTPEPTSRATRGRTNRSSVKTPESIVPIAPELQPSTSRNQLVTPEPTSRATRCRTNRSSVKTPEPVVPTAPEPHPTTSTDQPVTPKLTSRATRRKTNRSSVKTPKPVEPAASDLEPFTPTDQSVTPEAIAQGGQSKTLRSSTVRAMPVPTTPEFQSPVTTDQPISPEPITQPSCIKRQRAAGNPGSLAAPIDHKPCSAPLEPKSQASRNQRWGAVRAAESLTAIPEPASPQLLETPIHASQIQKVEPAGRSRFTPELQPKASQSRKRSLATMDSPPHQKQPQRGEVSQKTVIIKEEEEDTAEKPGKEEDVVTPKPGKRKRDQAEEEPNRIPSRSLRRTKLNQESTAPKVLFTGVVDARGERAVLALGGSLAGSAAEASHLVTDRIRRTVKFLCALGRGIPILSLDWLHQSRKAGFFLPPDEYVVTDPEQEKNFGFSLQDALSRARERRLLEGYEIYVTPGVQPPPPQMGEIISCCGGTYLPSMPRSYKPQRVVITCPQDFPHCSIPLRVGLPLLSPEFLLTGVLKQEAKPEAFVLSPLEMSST
UniProt Q9HCC0: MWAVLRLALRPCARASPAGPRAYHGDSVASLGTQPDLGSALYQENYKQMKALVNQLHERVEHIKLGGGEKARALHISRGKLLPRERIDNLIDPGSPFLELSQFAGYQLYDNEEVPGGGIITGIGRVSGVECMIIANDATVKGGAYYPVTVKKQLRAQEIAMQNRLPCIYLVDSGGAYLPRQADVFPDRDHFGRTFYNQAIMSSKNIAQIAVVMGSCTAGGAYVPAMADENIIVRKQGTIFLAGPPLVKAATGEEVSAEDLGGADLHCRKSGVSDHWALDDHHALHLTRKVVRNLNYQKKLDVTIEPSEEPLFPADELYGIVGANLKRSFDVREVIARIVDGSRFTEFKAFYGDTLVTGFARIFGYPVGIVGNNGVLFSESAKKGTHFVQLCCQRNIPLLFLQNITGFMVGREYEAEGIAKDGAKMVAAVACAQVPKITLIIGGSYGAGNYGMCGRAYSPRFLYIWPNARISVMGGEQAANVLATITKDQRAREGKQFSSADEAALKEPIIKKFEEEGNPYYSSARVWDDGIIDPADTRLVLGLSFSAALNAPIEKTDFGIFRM
UniProt Q86V88: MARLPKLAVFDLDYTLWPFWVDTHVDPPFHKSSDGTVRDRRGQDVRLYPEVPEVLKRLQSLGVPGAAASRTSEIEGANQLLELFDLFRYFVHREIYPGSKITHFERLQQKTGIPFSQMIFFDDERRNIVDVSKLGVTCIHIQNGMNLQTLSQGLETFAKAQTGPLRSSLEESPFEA
UniProt Q8N6Q8: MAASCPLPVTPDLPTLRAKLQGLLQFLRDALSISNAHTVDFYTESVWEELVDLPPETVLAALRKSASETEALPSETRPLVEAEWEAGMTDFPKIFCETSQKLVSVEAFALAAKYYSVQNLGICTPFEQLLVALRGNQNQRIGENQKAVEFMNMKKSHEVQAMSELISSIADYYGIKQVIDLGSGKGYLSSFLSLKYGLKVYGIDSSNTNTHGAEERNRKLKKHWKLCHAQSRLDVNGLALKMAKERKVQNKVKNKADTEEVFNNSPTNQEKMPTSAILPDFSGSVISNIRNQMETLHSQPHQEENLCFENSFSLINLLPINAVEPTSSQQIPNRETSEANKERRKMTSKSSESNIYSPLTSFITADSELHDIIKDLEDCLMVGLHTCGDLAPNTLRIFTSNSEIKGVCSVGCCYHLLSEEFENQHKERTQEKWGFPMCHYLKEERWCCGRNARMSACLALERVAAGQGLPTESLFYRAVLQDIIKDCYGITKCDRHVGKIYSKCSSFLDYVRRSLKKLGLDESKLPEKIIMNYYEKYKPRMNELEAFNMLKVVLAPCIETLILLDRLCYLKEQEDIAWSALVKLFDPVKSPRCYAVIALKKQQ

Legend:
Test in all cases: log2 fold change, soluble protein after heating vs DMSO (PISA); higher = thermal stabilisation; K562 cells, 10 uM, 30 min; active = over 0.2 and 3.5 SD of the protein, either way, in both replicates (recomputed)
[1] = compound: COC1=CC=C(C=C1)CN2C=CC3=C2C=C(C=C3)C(=O)NO
Outline: (§1)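 Aliquots of K562 cells (2×10^6 cells/mL) treated with 10 μM compound for 30 min were heated for 3 min over 48°C-58°C. After pooling and extraction in PBS with 0.5% NP-40 at 4°C, soluble protein from a 21,000xg, 90 min spin was quantified by TMTpro 16plex LC-MS/MS with channel sums equalised. Thermal stability is expressed against control samples, from duplicates, as a log2 fold change.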

[2] = compound: CON(C)C(=O)N1N=C(c2cc(F)ccc2F)S[C@@]1(CCCN)c1ccccc1 [filanesib]
Outline: as §1

[3] = compound: CO[C@H]1C[C@@H]2CC[C@@H](C)[C@@](O)(O2)C(=O)C(=O)N2CCCC[C@H]2C(=O)O[C@H]([C@H](C)C[C@@H]2CC[C@H](n3cnnn3)[C@H](OC)C2)CC(=O)[C@H](C)/C=C(\C)[C@@H](O)[C@@H](OC)C(=O)[C@H](C)C[C@H](C)/C=C/C=C/C=C/1C [zotarolimus]
Outline: as §1

[4] = compound: COc1cc(C(=O)O)ccc1NC(=O)[C@@H]1N[C@@H](CC(C)(C)C)[C@](C#N)(c2ccc(Cl)cc2F)[C@H]1c1cccc(Cl)c1F [idasanutlin]
Outline: as §1

[5] = compound: COc1cc(Nc2ncc3c(n2)-c2ccc(Cl)cc2C(c2c(F)cccc2OC)=NC3)ccc1C(=O)O [alisertib]
Outline: as §1

[6] = compound: COc1cc2nc(-c3cc(F)ccc3O)nc(N[C@@H]3CNC[C@H]3C(C)(C)O)c2cc1OC
Outline: as §1

[7] = compound: COc1cc2ncnc(Nc3ccc(F)c(Cl)c3)c2cc1OCCCN1CCOCC1 [gefitinib]
Outline: as §1

[8] = compound: COc1cccc2cc(-c3nc([C@H]4CC[C@H](C(=O)O)CC4)n4ncnc(N)c34)[nH]c12
Outline: as §1

[9] = compound: CS(=O)(=O)CCNCc1ccc(-c2ccc3ncnc(Nc4ccc(OCc5cccc(F)c5)c(Cl)c4)c3c2)o1 [lapatinib]
Outline: as §1

[10] = compound: CS(=O)(=O)N1CCN(Cc2cc3nc(-c4cccc5[nH]ncc45)nc(N4CCOCC4)c3s2)CC1 [pictilisib]
Outline: as §1

[11] = compound: CS(=O)(=O)c1ccc(-c2cnc(N)c(C(=O)Nc3ccccc3)n2)cc1
Outline: as §1

[12] = compound: C[C@@H](Oc1cc(-c2cnn(C3CCNCC3)c2)cnc1N)c1c(Cl)ccc(F)c1Cl [crizotinib]
Outline: as §1

[13] = compound: C[C@@H]1COCCN1C2=NC(=NC(=C2)C3(CC3)S(=O)(=O)C)C4=C5C=CNC5=CC=C4
Outline: as §1

[14] = compound: C[C@H](C1=CC=C(C=C1)C(=O)NC2=C3C=CNC3=NC=C2)N
Outline: as §1

[15] = compound: C[C@H](Nc1ncnc2nc[nH]c12)c1cc2cccc(Cl)c2c(=O)n1-c1ccccc1 [duvelisib]
Outline: as §1

[16] = compound: Cc1cc(Nc2cc(CN3CCOCC3)c3nc(C)c(Cc4ccc(Cl)cc4F)n3n2)n[nH]1 [gandotinib]
Outline: as §1

[17] = compound: Cc1cc(Nc2cc(N3CCN(C)CC3)nc(Sc3ccc(NC(=O)C4CC4)cc3)n2)n[nH]1 [tozasertib]
Outline: as §1

[18] = compound: Cc1cc(SCc2sc(-c3ccc(C(F)(F)F)cc3)nc2C)ccc1OCC(=O)O
Outline: as §1

[19] = compound: Cc1ccc(-n2nc(C(C)(C)C)cc2NC(=O)Nc2ccc(OCCN3CCOCC3)c3ccccc23)cc1 [doramapimod]
Outline: as §1

[20] = compound: Cc1ccc(C(=O)N(CCCN)[C@@H](c2nc3cc(Cl)ccc3c(=O)n2Cc2ccccc2)C(C)C)cc1 [ispinesib]
Outline: as §1

| Target | log2 fold change [1] | log2 fold change [2] | log2 fold change [3] | log2 fold change [4] | log2 fold change [5] | log2 fold change [6] | log2 fold change [7] | log2 fold change [8] | log2 fold change [9] | log2 fold change [10] | log2 fold change [11] | log2 fold change [12] | log2 fold change [13] | log2 fold change [14] | log2 fold change [15] | log2 fold change [16] | log2 fold change [17] | log2 fold change [18] | log2 fold change [19] | log2 fold change [20] |
| --- | --- | --- | --- | --- | --- | --- | --- | --- | --- | --- | --- | --- | --- | --- | --- | --- | --- | --- | --- | --- |
| MCTS1 isoform 3 (UniProt Q9ULC4) | inactive: 0.004 | inactive: -0.026 | inactive: 0.007 | inactive: -0.008 | inactive: -0.046 | inactive: -0.001 | inactive: -0.006 | inactive: 0.016 | inactive: -0.013 | inactive: 0.028 | inactive: 0.011 | inactive: 0.037 | inactive: 0.019 | inactive: -0.072 | inactive: 0.001 | inactive: 0.021 | inactive: -0.004 | inactive: -0.018 | inactive: -0.035 | inactive: 0.044 |
| METTL18 (UniProt O95568) | active: -0.364 | inactive: 0.009 | inactive: 0.033 | inactive: -0.022 | inactive: 0.006 | inactive: 0.075 | inactive: -0.033 | inactive: 0.057 | inactive: 0.069 | inactive: 0.026 | inactive: 0.003 | inactive: -0.043 | inactive: 0.053 | inactive: -0.012 |  | inactive: -0.045 |  | inactive: 0.012 | inactive: -0.001 | inactive: 0.004 |
| MED16 (UniProt Q9Y2X0) | inactive: -0.032 | inactive: 0.062 | inactive: -0.029 | inactive: 0.144 | inactive: -0.024 | inactive: -0.063 | inactive: 0.016 | inactive: 0.005 | inactive: 0.064 | inactive: 0.011 | inactive: -0.04 | inactive: -0.072 | inactive: -0.071 | inactive: 0.06 |  | inactive: -0.098 |  | inactive: 0.063 | inactive: 0.08 | inactive: -0.097 |
| METAP2 (UniProt P50579) | inactive: 0.051 | inactive: 0.081 | inactive: -0.022 | inactive: 0.08 | inactive: -0.053 | inactive: -0.033 | inactive: 0.033 | inactive: -0.027 | inactive: -0.005 | inactive: -0.04 | inactive: 0.069 | inactive: 0.014 | inactive: -0.018 | inactive: 0.132 | inactive: 0.016 | inactive: 0.052 | inactive: -0.011 | inactive: -0.021 | inactive: -0.038 | inactive: 0.018 |
| MEAK7 (UniProt Q6P9B6) | inactive: -0.046 | inactive: -0.109 | inactive: -0.002 | inactive: -0.013 | inactive: -0.012 | inactive: -0.101 | inactive: -0.142 | inactive: -0.055 | inactive: 0.087 | inactive: -0.063 | inactive: -0.005 | active: -0.259 | inactive: 0.049 | inactive: 0.005 |  | inactive: -0.224 |  | inactive: 0.024 | inactive: 0.031 | inactive: -0.139 |
| MGST2 (UniProt Q99735) | inactive: -0.009 | inactive: 0.124 | inactive: 0.082 | inactive: -0.008 | inactive: -0.012 | inactive: 0.015 | inactive: 0.002 | inactive: 0.027 | inactive: -0.196 | inactive: -0.028 | inactive: -0.048 | inactive: -0.042 | inactive: 0.087 | inactive: -0.132 | inactive: 0.136 | inactive: -0.088 | inactive: -0.026 | inactive: 0.152 | inactive: 0.022 | inactive: -0.002 |
| MDH1 isoform 3 (UniProt P40925) | inactive: 0.045 | inactive: -0.082 | inactive: 0.028 | inactive: -0.047 | inactive: -0.017 | inactive: 0.001 | inactive: -0.002 | inactive: 0.03 | inactive: -0.028 | inactive: 0.039 | inactive: -0.02 | inactive: 0.037 | inactive: 0.033 | inactive: -0.066 | inactive: 0.032 | inactive: -0.011 | inactive: -0.032 | inactive: -0.02 | inactive: -0.018 | inactive: 0.042 |
| MAT1A (UniProt Q00266) | inactive: -0.026 | inactive: -0.051 | inactive: -0.048 | inactive: 0.048 | inactive: -0.182 | inactive: 0.031 | inactive: 0.043 | inactive: 0.05 | inactive: 0.009 | inactive: -0.021 | inactive: 0.068 | inactive: 0.079 | inactive: -0.055 | inactive: -0.051 | inactive: -0.004 | inactive: 0.135 | inactive: -0.033 | inactive: -0.041 | inactive: -0.052 | inactive: 0.005 |
| MCUR1 (UniProt Q96AQ8) | inactive: -0.042 | inactive: 0.019 | inactive: -0.002 | inactive: -0.13 | inactive: 0.009 | inactive: 0.181 | inactive: 0.009 | inactive: 0.052 | inactive: -0.009 | inactive: 0.087 | inactive: 0.041 | inactive: 0.082 | inactive: 0.1 | inactive: 0.044 |  | inactive: -0.021 |  | inactive: -0.017 | inactive: -0.002 | inactive: 0.255 |
| MDC1 (UniProt Q14676) | inactive: -0.055 | inactive: 0.223 | inactive: 0.005 | inactive: 0.283 | inactive: -0.028 | inactive: -0.01 | inactive: 0.032 | inactive: -0.045 | inactive: 0.077 | inactive: 0.08 | inactive: -0.053 | inactive: -0.109 | inactive: 0.041 | inactive: 0.107 |  | inactive: 0.423 |  | inactive: -0.031 | inactive: 0.178 | inactive: -0.217 |
| MCCC2 (UniProt Q9HCC0) | inactive: 0.137 | inactive: -0.07 | inactive: 0 | inactive: -0.033 | inactive: -0.057 | inactive: -0.022 | inactive: 0.006 | inactive: 0.083 | inactive: 0.001 | inactive: -0.031 | inactive: -0.004 | inactive: 0.028 | inactive: 0.027 | inactive: -0.053 |  | inactive: 0.051 |  | inactive: -0.022 | inactive: 0 | inactive: 0.047 |
| MCM3 isoform 2 (UniProt P25205) | inactive: 0.002 | inactive: -0.049 | inactive: 0.023 | inactive: -0.005 | inactive: -0.078 | inactive: -0.013 | inactive: 0.011 | inactive: -0.011 | inactive: 0.003 | inactive: 0.011 | inactive: 0.013 | inactive: -0.001 | inactive: 0.032 | inactive: -0.094 | inactive: 0.002 | inactive: -0.046 | inactive: 0.002 | inactive: 0.018 | inactive: 0.012 | inactive: 0.048 |
| MDP1 (UniProt Q86V88) | inactive: -0.071 | inactive: 0.067 | inactive: -0.035 | inactive: 0.015 | inactive: 0.043 | inactive: 0.097 | inactive: 0.009 | inactive: 0.098 | inactive: 0.018 | inactive: -0.007 | inactive: 0.022 | inactive: 0.14 | inactive: 0.094 | inactive: 0.135 | inactive: 0.048 | inactive: 0.004 | inactive: 0.005 | inactive: -0.072 | inactive: 0.053 | inactive: 0.019 |
| MED18 (UniProt Q9BUE0) | inactive: 0.009 | inactive: 0.023 | inactive: 0 | inactive: 0.064 | inactive: -0.03 | inactive: -0.049 | inactive: -0.056 | inactive: 0.049 | inactive: 0.024 | inactive: 0.003 | inactive: -0.049 | inactive: -0.105 | inactive: -0.136 | inactive: -0.065 | inactive: -0.024 | inactive: -0.046 | inactive: 0.011 | inactive: -0.003 | inactive: -0.055 | inactive: 0.01 |
| METTL25 (UniProt Q8N6Q8) | inactive: 0.063 | inactive: 0.032 | inactive: -0.108 | inactive: -0.107 | inactive: -0.091 | inactive: 0.343 | inactive: -0.01 | inactive: -0.036 | inactive: -0.179 | inactive: 0.13 | inactive: 0.045 | inactive: 0.083 | inactive: -0.099 | inactive: 0.164 | inactive: 0.267 | inactive: -0.161 |  | inactive: -0.074 | inactive: -0.065 |  |
| MASTL (UniProt Q96GX5) | inactive: 0.147 | inactive: -0.09 | inactive: 0.088 | inactive: 0.072 | inactive: -0.09 |  | inactive: -0.107 | inactive: -0.155 |  |  | inactive: -0.058 | inactive: 0.092 | inactive: 0.179 | inactive: 0.046 |  |  |  | inactive: -0.12 | inactive: -0.075 | inactive: 0.099 |
| MFSD8 (UniProt Q8NHS3) | inactive: -0.236 |  | inactive: -0.062 | inactive: -0.019 | inactive: 0.059 | inactive: -0.07 |  | inactive: 0.054 | inactive: 0.025 | inactive: 0.079 |  | inactive: -0.013 | inactive: 0.04 | inactive: -0.023 |  | inactive: -0.018 |  | inactive: -0.015 | inactive: 0.131 | inactive: -0.208 |

Reformatted comma-delimited: part of the list above.
Target,log2 fold change [1],log2 fold change [2],log2 fold change [3],log2 fold change [4],log2 fold change [5],log2 fold change [6],log2 fold change [7],log2 fold change [8],log2 fold change [9],log2 fold change [10],log2 fold change [11],log2 fold change [12],log2 fold change [13],log2 fold change [14],log2 fold change [15],log2 fold change [16],log2 fold change [17],log2 fold change [18],log2 fold change [19],log2 fold change [20]
METTL18 (UniProt O95568),active: -0.364,inactive: 0.009,inactive: 0.033,inactive: -0.022,inactive: 0.006,inactive: 0.075,inactive: -0.033,inactive: 0.057,inactive: 0.069,inactive: 0.026,inactive: 0.003,inactive: -0.043,inactive: 0.053,inactive: -0.012,,inactive: -0.045,,inactive: 0.012,inactive: -0.001,inactive: 0.004
MED16 (UniProt Q9Y2X0),inactive: -0.032,inactive: 0.062,inactive: -0.029,inactive: 0.144,inactive: -0.024,inactive: -0.063,inactive: 0.016,inactive: 0.005,inactive: 0.064,inactive: 0.011,inactive: -0.04,inactive: -0.072,inactive: -0.071,inactive: 0.06,,inactive: -0.098,,inactive: 0.063,inactive: 0.08,inactive: -0.097
